Assay [1] concerns the target T1, GFP-LacI-CENP-C (Drosophila melanogaster) (UniProt Q9VHP9).
T1 sequence: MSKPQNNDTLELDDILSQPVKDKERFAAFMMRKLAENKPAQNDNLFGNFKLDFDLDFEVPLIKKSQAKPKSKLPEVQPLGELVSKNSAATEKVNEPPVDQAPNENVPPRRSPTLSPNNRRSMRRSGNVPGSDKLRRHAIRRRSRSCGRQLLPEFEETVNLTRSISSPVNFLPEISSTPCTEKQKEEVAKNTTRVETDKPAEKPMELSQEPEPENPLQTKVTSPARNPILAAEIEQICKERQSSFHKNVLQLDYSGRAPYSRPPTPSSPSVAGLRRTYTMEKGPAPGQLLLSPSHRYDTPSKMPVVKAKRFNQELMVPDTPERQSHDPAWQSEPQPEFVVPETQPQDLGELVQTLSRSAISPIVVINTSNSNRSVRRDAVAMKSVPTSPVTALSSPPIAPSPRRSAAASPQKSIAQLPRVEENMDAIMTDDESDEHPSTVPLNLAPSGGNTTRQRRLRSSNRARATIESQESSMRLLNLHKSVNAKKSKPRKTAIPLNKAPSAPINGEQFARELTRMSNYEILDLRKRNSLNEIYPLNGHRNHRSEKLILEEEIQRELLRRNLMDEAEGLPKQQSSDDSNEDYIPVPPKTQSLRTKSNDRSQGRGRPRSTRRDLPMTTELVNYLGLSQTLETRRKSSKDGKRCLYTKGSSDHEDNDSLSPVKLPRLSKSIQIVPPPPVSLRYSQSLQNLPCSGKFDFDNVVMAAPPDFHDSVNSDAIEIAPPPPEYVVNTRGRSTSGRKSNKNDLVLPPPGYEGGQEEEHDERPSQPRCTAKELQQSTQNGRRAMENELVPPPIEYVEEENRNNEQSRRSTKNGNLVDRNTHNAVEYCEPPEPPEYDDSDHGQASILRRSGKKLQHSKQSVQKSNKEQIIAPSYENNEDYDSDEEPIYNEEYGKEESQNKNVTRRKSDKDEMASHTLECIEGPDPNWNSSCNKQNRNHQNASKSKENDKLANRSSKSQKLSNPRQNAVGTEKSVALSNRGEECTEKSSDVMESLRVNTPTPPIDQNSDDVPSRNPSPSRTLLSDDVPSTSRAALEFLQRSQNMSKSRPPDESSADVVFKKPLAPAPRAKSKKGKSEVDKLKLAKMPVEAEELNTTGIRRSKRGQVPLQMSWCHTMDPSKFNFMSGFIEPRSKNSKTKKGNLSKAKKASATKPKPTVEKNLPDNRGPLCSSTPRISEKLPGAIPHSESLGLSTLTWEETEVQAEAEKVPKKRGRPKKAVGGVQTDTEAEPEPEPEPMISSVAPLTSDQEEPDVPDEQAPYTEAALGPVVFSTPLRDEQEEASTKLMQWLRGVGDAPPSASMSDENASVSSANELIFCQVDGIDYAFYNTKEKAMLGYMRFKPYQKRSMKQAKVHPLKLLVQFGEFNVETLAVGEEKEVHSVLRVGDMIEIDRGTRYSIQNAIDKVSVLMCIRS
As to the kind of experiment: LacO/LacI tethering assay in cells.

By UniProt entry, the sequences of proteins in these tests, tags left out. Where a name states a change or a piece, a line headed by the entry shows the natural chain unless it says otherwise.
UniProt Q9V6Q2, whole entry: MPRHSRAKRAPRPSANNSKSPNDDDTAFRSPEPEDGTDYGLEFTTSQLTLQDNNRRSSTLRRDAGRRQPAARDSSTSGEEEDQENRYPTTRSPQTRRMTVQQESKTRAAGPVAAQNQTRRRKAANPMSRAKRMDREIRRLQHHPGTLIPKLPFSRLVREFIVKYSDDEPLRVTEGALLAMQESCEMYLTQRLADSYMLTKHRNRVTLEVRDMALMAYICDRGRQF

The target in assay [2] is T2, GFP-LacI-CENP-C F1324R (Drosophila melanogaster) (UniProt Q9VHP9).
T2 sequence: T1 sequence with F1324R
Put plainly: LacO/LacI tethering assay in cells.

In assay [3] the target is CENP-A-GFP-LacI (Drosophila melanogaster) (UniProt Q9V6Q2). As to the kind of experiment: LacO/LacI tethering assay in cells.
Assay [4] addresses CAL1_(841-979) (untagged) (Drosophila melanogaster) (UniProt Q9VEN2). As to the kind of experiment: AUC.
In assay [5] the target is T3, His-CENP-C_(1264-1411) (Drosophila melanogaster) (UniProt Q9VHP9).
T3 sequence: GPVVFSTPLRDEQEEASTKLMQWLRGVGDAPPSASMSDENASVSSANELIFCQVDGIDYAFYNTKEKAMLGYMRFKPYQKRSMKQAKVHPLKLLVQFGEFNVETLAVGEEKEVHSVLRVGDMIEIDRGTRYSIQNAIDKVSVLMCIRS
As to the kind of experiment: SEC.

Assay [6] deals with T4, His-CENP-C_(1264-1411 L1357E/M1407E) (Drosophila melanogaster) (UniProt Q9VHP9).
T4 sequence: T3 sequence with L94E, M144E
As to the kind of experiment: SEC. (SEC sorts molecules by how far they enter the pores of the column.)

The target of assay [7] is T5, His-CENP-C_(1264-1411 F1324R) (Drosophila melanogaster) (UniProt Q9VHP9).
T5 sequence: T3 sequence with F61R
As to the kind of experiment: SEC.

Changes are numbered by the printed parent chain. No constants are given. Whether binding was seen depends on the method and setting. Some results given as binding are weak or reduced against the parent protein; the word gives no strength. For some of these results: Where a sequence is shown, tags or fusion partners need not be part of it.

Turning to CAL1-V5 (from UniProt Q9VEN2 1-979), the binding entry in assay [1], in assay [2] and in assay [3] was “binds” throughout. With “CAL1-V5 I900R/K907A/Y908A (from UniProt Q9VEN2 1-979)”, the binding entry in assay [1] was “binds”. In the case of “CAL1-V5 W22A/F29A (from UniProt Q9VEN2 1-979)”, the binding result in assay [3] is on record as “binds weakly”.

On to “CAL1-V5 W22R/F29R (from UniProt Q9VEN2 1-979)”, for which, in assay [3], the binding entry is listed as “no binding”. Consider “CAL1_(841-979) (untagged) (from UniProt Q9VEN2 841-979) (domain or fragment)”, for which the binding entry in assay [4] is on record as “no binding”. For the substance “His-SUMO-CAL1_(841-979 I900R/K907A/Y908A) (from UniProt Q9VEN2 841-979) (domain or fragment)”, the binding entry in assay [5] is on record as “no binding”. Consider “His-SUMO-CAL1_(841-979) (from UniProt Q9VEN2 841-979) (domain or fragment)”, for which the binding result in assay [6] and in assay [7] was “no binding” throughout.

Source of the values: paper doi:10.1101/723213.
